From patent US8552018B2, “Substituted tricyclic compounds as protein kinase inhibitors” (Arizona Board of Regents on behalf of the University of …, priority 2003, dated 2013)

Columns and labels:
Format in all cases: cell-based
GIST882 cell line = experiment: Cancer cell cytotoxicity assay (sulforhodamine B); settings: Homo sapiens, 96 h; GIST882, 4 days; read-out: IC50 c-kit GIST882
Protocol: (§1) To validate the hypothesis that the designed c-kit/PDGFR tyrosine kinase inhibitors mediate GIST882 cell killing and PDGFR-mediated cell killing of pancreatic cancer cell lines (CFPAC-1, PANC-1 and MIA PaCa-2), an in vitro cytotoxicity assay was performed. The GIST882 cell line used in this study has a c-kit gain-of-function mutation (K642E). The assay utilized the Cell Titer 965 Non-Radioactive Cell Proliferation Assay (Promega Corp., Madison, Wis.). First the cells were cultured. GIST882 cells were provided by Dr. Jonathan A. Fletcher (Dana-Farber Cancer Institute, Boston, Mass.). PANC-1 and MIAPaCa-2 cells were provided by Dr. Daniel Von Hoff (Arizona Cancer Center, Tucson, Ariz.). […]
(§2) Cells were plated at a density of 2000 to 10000 cells per well, depending on their growth rate, in 0.1 mL medium on day 0 in 96-well Falcon microtiter plates (#3072, Becton-Dickinson Labware, Lincoln Park, N.J.). […] The absorbance of each well was read on a plate reader (Wallac Vector^2, PerkinElmer) at the wavelength of 570 nm. Data were expressed as the percentage of survival of control calculated from the absorbance corrected for background absorbance. The surviving percent of cells was determined by dividing the mean absorbance values of the […] by the mean absorbance values of the control and multiplying by 100.

[1] = test system: pancreatic cancer cell lines MIAPaCa-2 and PANC-1; experiment: Cancer cell cytotoxicity assay, range over both pancreatic lines; settings: potency order
Protocol: as §1, §2

LNCaP prostate cells = experiment: MTT assay; settings: Homo sapiens, read-out: IC50 (cell survival reduced to 50% of vehicle-treated controls), FIG. 30
Protocol: An MTT assay was performed to determine the number of viable cells in each well for each concentration of compound, and also for a set of vehicle controls (DMSO).

**Q.** Which IC50 (GIST882 cell line) does the source give for `Cc1ccc(NC(=O)c2ccc(CN3CCN(C)CC3)cc2)cc1Nc1nccc(-c2cccnc2)n1` [STI571, reference compound] here?
**A.** The IC50 was 0.1 µM.

**Q.** What about the IC50 [1] of the same molecule?
**A.** Its IC50 is 20 to 24 µM.

**Q.** What about the IC50 (LNCaP prostate cells) of the same molecule?
**A.** Its IC50 is greater than 10 µM.
